From US20210040221A1 (published 2021)
Results are given in words; binding and its absence hold for the method and conditions named. Some entries that bind do so weakly or less than the wild type.

T1: recombinant human CD25 his tagged (UniProt P01589 22-213)
T1 chain: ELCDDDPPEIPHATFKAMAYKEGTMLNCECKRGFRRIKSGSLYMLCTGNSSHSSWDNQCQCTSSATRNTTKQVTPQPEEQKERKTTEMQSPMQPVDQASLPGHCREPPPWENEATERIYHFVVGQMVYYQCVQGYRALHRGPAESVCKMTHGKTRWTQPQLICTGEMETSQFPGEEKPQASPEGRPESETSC


Key:
[1] = biological target: human CD25 (Uniprot record no. P01589), as synthetic peptides representing the human CD25 sequence (Pepscan arrays) (human) (UniProt P01589); assay: Pepscan peptide array ELISA
[2] = biological target: T1, recombinant human CD25 his tagged; assay: Octet sequential binding, rhCD25 his tagged on Ni-NTA biosensors, first antibody

| Binder | binding [1] | binding [2] |
| --- | --- | --- |
| Antibody 1 (antibody, V domains shown) VH: EVQLLESGGGLVQPGGSLRLSCAASGFTFSSYGMSWVRQAPGKGLELVSTINGYGDTTYYPDSVKGRFTISRDNSKNTLYLQMNSLRAEDTAVYYCARDRDYGNSYYYALDYWGQGTLVTVSS VL: EIVLTQSPGTLSLSPGERATLSCRASSSVSFMHWLQQKPGQAPRPLIYATSNLASGIPDRFSGSGSGTDYTLTISRLEPEDFAVYYCQQWSSNPPAFGQGTKLEIK | binds |  |
| Antibody 2 (antibody, V domains shown) VH: EVQLLESGGGLVQPGGSLRLSCAASGFTFSSYGMSWVRQAPGKGLELVSTINGYGDTTYYPDSVKGRFTISRDNSKNTLYLQMNSLRAEDTAVYYCARDRDYGNSYYYALDYWGQGTLVTVSS VL: QIVLTQSPGTLSLSPGERATLSCRASSSVSFMHWLQQKPGQSPRPLIYATSNLASGIPDRFSGSGSGTDYTLTISRLEPEDFAVYYCQQWSSNPPAFGQGTKLEIK | binds | binds |

More lines, now with the values ahead:

| binding [1] | binding [2] | Binder |
| --- | --- | --- |
| binds |  | Antibody 4 (antibody, V domains shown) VH: EVQLLESGGGLVQPGGSLRLSCAASGFTFSSYGMSWVRQAPGKGLELVSTINGYGDTTYYPDSVKGRFTISRDNAKNTLYLQMNSLRAEDTAVYFCARDRDYGNSYYYALDYWGQGTLVTVSS VL: QIVLTQSPGTLSLSPGERATLSCRASSSVSFMHWLQQKPGQSPRPLIYATSNLASGIPDRFSGSGSGTDYTLTISRLEPEDFAVYYCQQWSSNPPAFGQGTKLEIK |
| binds |  | Antibody 3 (antibody, V domains shown) VH: EVQLLESGGGLVQPGGSLRLSCAASGFTFSSYGMSWVRQAPGKGLELVSTINGYGDTTYYPDSVKGRFTISRDNAKNTLYLQMNSLRAEDTAVYFCARDRDYGNSYYYALDYWGQGTLVTVSS VL: EIVLTQSPGTLSLSPGERATLSCRASSSVSFMHWLQQKPGQAPRPLIYATSNLASGIPDRFSGSGSGTDYTLTISRLEPEDFAVYYCQQWSSNPPAFGQGTKLEIK |
